PubChem BioAssay AID1259308 | NCATS | 2017
Here is one part, drawn at random, of about 59,000 reagents. About 1,510 of all reagents (2.6%) were called active. 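Calls use total luciferase alone and ignore viability, so some active siRNAs may act by altering cell number.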 Reagents against one gene are numbered here. Not all columns of the deposit are shown. Reagent sequences are not shown.

Assay: 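Genes whose loss raises luciferase production in HEK293 cells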 (primary screen)
System: human HEK293 embryonic kidney cells stably expressing firefly luciferase (HEK-CMV-Luc2-Hygro)
Reagent: single siRNA against human genes, 0.8 pmol siRNA per well
Time to read-out: 72 h
Measured: 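Reporter luminescence and viable-cell signal on separate replicate plates, given as percent of non-targeting control and median/MAD z-scores, plus per-cell luciferase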
Reading the numbers: total luciferase, z-score and total luciferase, % of control: higher = more reporter protein produced
Rule for the call: 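An siRNA counts as active if its total luciferase robust z-score exceeds 3; genes with two or more such siRNAs out of three were retested with fresh siRNAs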
Meaning of the calls: active = raised luciferase; inactive = no rise

The first 2 records, ahead of the listing:
RANBP3L (RAN binding protein 3 like) #1: total luciferase, z-score = -0.783; total luciferase, % of control = 66.3; Call = inactive
RANBP3L (RAN binding protein 3 like) #2: total luciferase, z-score = 0.259; total luciferase, % of control = 87; Call = inactive

The listing, from the start:
RANBP3L (RAN binding protein 3 like) #1: total luciferase, z-score = -0.783; total luciferase, % of control = 66.3; Call = inactive
RANBP3L (RAN binding protein 3 like) #2: total luciferase, z-score = 0.259; total luciferase, % of control = 87; Call = inactive
RANBP3L (RAN binding protein 3 like) #3: total luciferase, z-score = -0.315; total luciferase, % of control = 75.6; Call = inactive
PPP2R5A (protein phosphatase 2 regulatory subunit B'alpha) #1: total luciferase, z-score = 2.64; total luciferase, % of control = 134; Call = inactive
PPP2R5A (protein phosphatase 2 regulatory subunit B'alpha) #2: total luciferase, z-score = -0.86; total luciferase, % of control = 64.8; Call = inactive
PPP2R5A (protein phosphatase 2 regulatory subunit B'alpha) #3: total luciferase, z-score = 1.47; total luciferase, % of control = 111; Call = inactive
TRMT112P6 (tRNA methyltransferase subunit 11-2 pseudogene 6) #1: total luciferase, z-score = 0.223; total luciferase, % of control = 86.3; Call = inactive
TRMT112P6 (tRNA methyltransferase subunit 11-2 pseudogene 6) #2: total luciferase, z-score = 1.08; total luciferase, % of control = 103; Call = inactive
TRMT112P6 (tRNA methyltransferase subunit 11-2 pseudogene 6) #3: total luciferase, z-score = 1.34; total luciferase, % of control = 109; Call = inactive
MARCHF2 (membrane associated ring-CH-type finger 2) #1: total luciferase, z-score = 1.02; total luciferase, % of control = 102; Call = inactive
MARCHF2 (membrane associated ring-CH-type finger 2) #2: total luciferase, z-score = -0.802; total luciferase, % of control = 65.9; Call = inactive
MARCHF2 (membrane associated ring-CH-type finger 2) #3: total luciferase, z-score = -0.769; total luciferase, % of control = 66.6; Call = inactive
